These are yes or no findings as the source states them, for the method shown. In cells and extracts the contact can be indirect. Some entries that bind do so weakly or less than the wild type.

Chains of the proteins cited; added tags and fusions are not shown.
UniProt Q04207: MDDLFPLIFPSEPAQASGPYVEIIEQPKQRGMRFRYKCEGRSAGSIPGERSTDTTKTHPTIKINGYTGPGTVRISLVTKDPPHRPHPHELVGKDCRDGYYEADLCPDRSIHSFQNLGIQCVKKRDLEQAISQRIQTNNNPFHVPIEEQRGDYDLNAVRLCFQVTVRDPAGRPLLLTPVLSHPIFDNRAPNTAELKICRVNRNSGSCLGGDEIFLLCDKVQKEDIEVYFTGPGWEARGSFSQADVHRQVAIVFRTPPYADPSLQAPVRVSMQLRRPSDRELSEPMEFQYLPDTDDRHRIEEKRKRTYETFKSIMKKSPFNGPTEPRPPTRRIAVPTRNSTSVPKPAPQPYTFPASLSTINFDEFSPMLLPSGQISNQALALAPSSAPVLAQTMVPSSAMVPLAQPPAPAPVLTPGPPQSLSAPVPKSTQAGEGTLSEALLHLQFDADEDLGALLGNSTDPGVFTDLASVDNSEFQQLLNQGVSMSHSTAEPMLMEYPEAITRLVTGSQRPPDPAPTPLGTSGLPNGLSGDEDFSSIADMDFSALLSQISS
UniProt Q8R4B8: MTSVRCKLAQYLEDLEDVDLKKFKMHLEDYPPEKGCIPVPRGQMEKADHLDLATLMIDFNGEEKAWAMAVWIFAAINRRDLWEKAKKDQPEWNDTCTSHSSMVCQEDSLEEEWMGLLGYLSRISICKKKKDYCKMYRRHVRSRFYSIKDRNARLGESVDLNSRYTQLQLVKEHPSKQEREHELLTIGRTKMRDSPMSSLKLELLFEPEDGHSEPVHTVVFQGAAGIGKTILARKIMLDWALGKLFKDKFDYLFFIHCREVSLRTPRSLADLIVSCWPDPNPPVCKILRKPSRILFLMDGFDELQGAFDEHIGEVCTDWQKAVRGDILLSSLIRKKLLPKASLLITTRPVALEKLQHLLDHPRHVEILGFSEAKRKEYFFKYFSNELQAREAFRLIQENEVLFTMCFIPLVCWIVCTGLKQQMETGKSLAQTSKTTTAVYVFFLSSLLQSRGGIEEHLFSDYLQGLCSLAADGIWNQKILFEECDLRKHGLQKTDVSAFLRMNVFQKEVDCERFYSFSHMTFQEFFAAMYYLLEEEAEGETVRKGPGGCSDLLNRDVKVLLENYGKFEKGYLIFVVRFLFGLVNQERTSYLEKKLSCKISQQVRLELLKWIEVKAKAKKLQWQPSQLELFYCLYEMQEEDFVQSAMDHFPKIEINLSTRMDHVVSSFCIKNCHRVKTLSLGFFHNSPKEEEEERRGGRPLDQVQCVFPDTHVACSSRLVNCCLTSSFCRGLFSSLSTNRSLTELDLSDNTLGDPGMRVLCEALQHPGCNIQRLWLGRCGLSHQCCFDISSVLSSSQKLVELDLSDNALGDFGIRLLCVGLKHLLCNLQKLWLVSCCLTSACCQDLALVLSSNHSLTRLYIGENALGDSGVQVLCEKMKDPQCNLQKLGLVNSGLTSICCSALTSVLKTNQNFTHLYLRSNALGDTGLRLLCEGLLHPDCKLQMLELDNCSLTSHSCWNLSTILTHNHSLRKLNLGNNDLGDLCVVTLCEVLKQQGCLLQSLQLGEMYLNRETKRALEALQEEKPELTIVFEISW

The experiment has as its target NF-κB p65 (mouse (endogenous in RAW 264.7)) (UniProt Q04207). Put plainly: co-IP; lysate of RAW 264.7 cells (CTR, LPS 100 ng/ml 24 h, or pretreated with resveratrol 10 uM before LPS); IP with anti-NF-κB p65 or non-specific IgG overnight at 4 °C, protein A/G-sepharose, immunoblot for NF-κB p65 and NLRP3. In general terms: A western blot detects proteins with antibodies after separation by electrophoresis.

For the substance NLRP3 (from UniProt Q8R4B8 1-1033), the binding entry is given as “binds”.

The values are drawn from article PMC10087625.
